Paper PMC7518282

System: PAL
Experiment: plate RNA binding assay (RiboGreen), immobilized PAL
Settings: dark; 12 mM HEPES/KOH pH 7.2, 135 mM KCl, 10 mM NaCl, 10% w/v glycerol, 0.5 mg/mL heparin, 0.5 mg/mL BSA, 25 C, 30 min, 465 nm light or dark, 100 or 1000 nM …; recombinant protein

GGGAGGACGAUGCGGCCCGUACAGCAGCGAUGCGGGUCGCGUGUCCACCCCGGCUCAGACGACUCGCUGAGGAUCCGAGA [aptamer 53]
binding result: binds more weakly

The exact form of at least one protein or probe is not confirmed. Weaker means in comparison with the reference protein, sequence or condition of that experiment.
